Our source for the binding values is patent US20170204191A1.

No constants are given. Whether binding was seen depends on the method and setting. Some results given as binding are weak or reduced against the parent protein; the word gives no strength.

Experiment [1] deals with T1, MUC1* on the cell surface of MUC1-positive breast cancer cells (ZR-75-1, T47D), P15941. In words: FACS on intact cells. As to conditions: remark: other sources report otherwise.
Experiment [2] concerns the target T1, MUC1* on the cell surface of …. In words: FACS on live ZR-75-1 cells, purified antibody. The settings on record: remark: other sources report otherwise.

B1: MIN-C2 monoclonal antibody (antibody, V domains shown)
VH: EVQLEESGGGLVKPGGSLKLSCAASGFTFSGYAMSWVRQTPEKRLEWVATISSGGTYIYYPDSVKGRFTISRDNAKNTLYLQMSSLRSEDTAMYYCARLGGDNYYEYFDVWGAGTTVTVSSAKTTPPSVY
VL: DIVITQSTASLGVSLGQRATISCRASKSVSTSGYSYMHWYQQRPGQPPKLLIYLASNLESGVPARFSGSGSGTDFTLNIHPVEEEDAATYYCQHSRELPFTFGGGTKLEIKRADAAPTVS
Take B1: the binding result in experiment [1] and in experiment [2] was “binds” throughout.
